Taken from: PubChem BioAssay AID1259424 (University of Nebraska Medical Center, 2018)

- Purpose: 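Find knockdowns that reproduce the expression shifts seen after KSR1 loss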 (primary screen)
- Cell system: human HCT116 colon cancer cells
- Reagent: siRNA pool against human genes, 50 nM
- Detection: 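Six signature mRNAs by branched-DNA multiplex assay, scaled to two housekeeping genes and non-targeting median, log2; matched to mean KSR1 knockdown profile by Pearson correlation and euclidean distance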
- Reading the numbers: mean correlation with KSR1 profile and KSR1 correlation: higher = expression change more like KSR1 knockdown; mean distance from KSR1 profile: higher = expression change less like KSR1 knockdown
Shown is an unselected part of about 14,000 reagents. 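Higher correlation or smaller distance means closer resemblance to KSR1 loss; control wells, including KSR1 knockdowns, recur on many plates.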 Not given: the time to read-out.

gene symbol | mean correlation with KSR1 profile | mean distance from KSR1 profile | KSR1 correlation, replicate 1 | KSR1 correlation, replicate 2 | KSR1 correlation, replicate 3
CACNG8 | 0.0982 | 2.45 | 0.368 | 0.241 | 0.048
ZNF503 | 0.519 | 1.98 | 0.332 | -0.00938 | 0.542
BEST3 | -0.38 | 2.68 | -0.577 | -0.171 | -0.44
COX7A2 | -0.763 | 2.44 | -0.756 | -0.671 | -0.631
TTPAL | 0.236 | 2.56 | 0.235 | 0.411 | 0.117
PAX7 | 0.102 | 2.79 | 0.43 | 0.367 | 0.192
ABHD6 | 0.719 | 0.882 | 0.53 | 0.659 | 0.553
PENK | -0.146 | 2.14 | 0.0218 | -0.0794 | -0.302
CASK | 0.479 | 1.26 | 0.124 | 0.576 | -0.368
HDAC10 | -0.0665 | 1.86 | -0.00948 | -0.28 | 0.0129
CCP110 | -0.413 | 1.93 | -0.203 | -0.22 | -0.533
ZNF3 | -0.103 | 1.64 | 0.0673 | -0.221 | -0.128

In a second layout: entries from further up
gene symbol	mean correlation with KSR1 profile	mean distance from KSR1 profile	KSR1 correlation, replicate 1	KSR1 correlation, replicate 2	KSR1 correlation, replicate 3
CCP110	-0.413	1.93	-0.203	-0.22	-0.533
ZNF3	-0.103	1.64	0.0673	-0.221	-0.128

More entries follow.
gene symbol | mean correlation with KSR1 profile | mean distance from KSR1 profile | KSR1 correlation, replicate 1 | KSR1 correlation, replicate 2 | KSR1 correlation, replicate 3
NDUFB3 | -0.368 | 3.35 | -0.184 | -0.311 | -0.38
ARMH3 | 0.671 | 2.2 | 0.847 | 0.791 | 0.185
OPCML | 0.412 | 1.19 | 0.374 | 0.37 | 0.331
EMX2 | -0.381 | 3.06 | -0.267 | -0.288 | -0.482
SULT2B1 | -0.12 | 3.2 | -0.232 | -0.2 | 0.178
HBE1 | -0.3 | 3.59 | -0.328 | -0.469 | -0.39
WDR5 | -0.123 | 2.87 | -0.0659 | -0.127 | 0.123
ENOX2 | 0.3 | 2.1 | 0.398 | 0.362 | 0.181
